Measured values reported in patent US20210163582A1.
No constants are given. Whether binding was seen depends on the method and setting. Some results given as binding are weak or reduced against the parent protein; the word gives no strength.

By UniProt entry, the sequences of proteins in these tests, tags left out. Where a name states a change or a piece, a line headed by the entry shows the natural chain unless it says otherwise. Chains listed by the source or under a name are the forms on record and can include a tag or linker.
Tau species in AD (Alzheimer's disease) brain lysate (P10636, form named): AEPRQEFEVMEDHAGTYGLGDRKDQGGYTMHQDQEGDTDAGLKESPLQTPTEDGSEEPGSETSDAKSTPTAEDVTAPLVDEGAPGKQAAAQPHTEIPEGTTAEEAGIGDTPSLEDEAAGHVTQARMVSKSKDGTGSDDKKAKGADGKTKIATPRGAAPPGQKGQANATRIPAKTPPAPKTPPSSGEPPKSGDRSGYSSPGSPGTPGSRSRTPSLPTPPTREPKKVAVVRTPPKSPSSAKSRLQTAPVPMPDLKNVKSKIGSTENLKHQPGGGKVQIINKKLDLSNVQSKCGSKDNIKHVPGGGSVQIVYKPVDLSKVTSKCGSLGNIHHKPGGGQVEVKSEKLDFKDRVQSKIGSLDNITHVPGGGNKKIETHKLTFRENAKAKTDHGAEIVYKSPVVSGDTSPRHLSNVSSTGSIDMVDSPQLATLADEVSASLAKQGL

Key:
[1] = molecular target: Tau species in AD (Alzheimer's disease) brain lysate (human) (UniProt P10636); test: dot-blot of total brain lysates, non-denaturing
[2] = molecular target: Tau species in ND (non-demented) brain lysate (human) (UniProt P10636); test: western blot of ND brain lysate
[3] = molecular target: Tau species in PSP (progressive supranuclear palsy) brain (human) (UniProt P10636); test: immunohistochemistry of PSP brain slices
[4] = molecular target: Tau species in AD (Alzheimer's disease) brain lysate (human) (UniProt P10636); test: western blot of AD brain lysate
[5] = molecular target: Tau species in AD (Alzheimer's disease) brain lysate (human) (UniProt P10636); test: immunohistochemistry of human brain slices
[6] = molecular target: Tau species in ND (non-demented) brain lysate (human) (UniProt P10636); test: immunohistochemistry of human brain slices
[7] = molecular target: Tau species in the sarkosyl-soluble fraction (S1) of AD brain lysate (human) (UniProt P10636); test: western blot of sarkosyl fractions of AD brain lysate
[8] = molecular target: Tau species in the sarkosyl-insoluble fraction (P2) of AD brain lysate (human) (UniProt P10636); test: as above
[9] = molecular target: Tau species in AD (Alzheimer's disease) brain lysate (human) (UniProt P10636); test: dot-blot of sucrose-gradient fractions of brain lysate, non-denaturing
[10] = molecular target: Tau species in AD (Alzheimer's disease) brain lysate (human) (UniProt P10636); test: dot-blot of SEC fractions of brain lysates
[11] = molecular target: Tau species localized at the synapses of AD brains (human) (UniProt P10636); test: dot-blot of cytosol and synaptoneurosome fractions, non-denaturing
[12] = molecular target: Tau species localized at the synapses of AD brains (human) (UniProt P10636); test: restated from the dot-blot of Example 4

Measured: binding

B1: mAb004 (antibody, V domains shown)
VH: EVQLVESGGDLVESGGSLKLSCAASGFTFSSYGMSWVRQTPDKRLEWVATISSSGSYTYYPDSVKGRFTISRDNAKNTLYLQMSSLNSEDTAMYYCADTYYGAMDYWGQGTSVTVSS
VL: DVLMTQTPLSLPVSLGDQASISCRSSQTIVHSNGNTYLEWYLQKPGQSPKLLIYKVSNRFSGVPDRFSGSGSGTDFTLKISRVEAEDLGVYYCFQGSLVPWTFGGGTQLEIR
binds: [1]

B2: mAb005 (antibody, V domains shown)
VH: EVQLVESGGGLVKPGGSLKLSCAASGFTFSDYGMHWVRQAPEKGLEWVAYSNSDSTTIYYADTVKGRFTISRDNAKSTLFLQMTSLRSEDTAMYYCGRSYYSNYVDYWGQGTTLTVSS
VL: DIVMTQIPLSLPVSLGDQASISCRSSQSLVHSNGNTYLHWYLQKPGQSPKLLIYKVSNRFSGVPDRFSGSGSGTDFTLKISRVEAEDLGVYFCFQSTHVPPTFGGGTKLEIK
binds: all assays above

B3: mAb008 (antibody, V domains shown)
VH: EVKLLQSGGGLVQPGGSLKVSCAASGFDFSRYWMSWVRRAPGKGLEWIGEINPDGNAINYAPSLKDKFIVSRDNAKNTLYLQMSNVRSEDTALYYCARPFPSVWGTGTTVTVSS
VL: DVLMTQTPLSLPVSLGDQASISCRSSQSLVRSNGNTYLEWYLQNPGQSPKLLIYKVSNRFSGVPDRFSGSGSGTDFTLKISRVEAEDLGVYYCFQGSHVPYTFGGGTKLEIK
binds: [1] | [11] | [12]

B4: mAb032 (antibody, V domains shown)
VH: QVQLQQSGAELVKPGASVKISCKASGYAFSSYWMNWVKQRPGKGLEWIGQIYPGDGDTDYNGKFKGKATLTADTSSSTAYMQLSSLTSEDSAVYFCASRSPYWGQGTLVTVSA
VL: DILMTQTPLSLPVSLGDQASISCRSSQSIVHSNGNTYLEWYLQKPGQSPKLLIYKVSNRFSGVPDRFSGSGSGTDFTLKISRVEAEDLGVYYCFQGSHVPYTFGGGTKLEIK
binds: [1] | [11] | [12]

B5: mAb025 (antibody, V domains shown)
VH: QIQLVQSGPELKKPGETVKISCKASGYTFTTHGMSWVKQAPGKGLKWMGWINTYSGVPTYTDDFKGRFAFSLETSASTAYLQINNLKNEDTATYFCARSELSWFAYWGQGTLVTVSA
VL: DIVMTQSPATLSVTPGDRVSLSCRASQSISDYLHWYQQKSHESPRLLIKYASQSISGIPSRFSGSGSGSDFTLSINSVEPEDVGVYYCQNGHSFPYTFGGGTKLEIK
binds: [1] | [11] | [12]

B6: mAb033 (antibody, V domains shown)
VH: QVTLKESGPGILQPSQTLSLTCSFSGFSLSTFGMGVGWFRQPSGKGLEWLAHIWWDDDKYYNPALKSRLTISKDTSKNQVFLKIANVDTADTATYYCARRGSNALDYWGQGTSVTVSS
VL: DVVVTQTPLSLPVSFGDQVSISCRSSQSLANSYGNTYLSWYLHKPGQSPQLLIYGISNRFSGVPDRFSGSGSGTDFTLKISTIKPEDLGMYYCLQGTHQPWTFGGGTKLEIK
binds: [1]
